# Results published in PubChem BioAssay AID2718 (Broad Institute, 2010).
# Chains of the proteins cited; added tags and fusions are not shown.
# UniProt O15379, whole entry, looked up: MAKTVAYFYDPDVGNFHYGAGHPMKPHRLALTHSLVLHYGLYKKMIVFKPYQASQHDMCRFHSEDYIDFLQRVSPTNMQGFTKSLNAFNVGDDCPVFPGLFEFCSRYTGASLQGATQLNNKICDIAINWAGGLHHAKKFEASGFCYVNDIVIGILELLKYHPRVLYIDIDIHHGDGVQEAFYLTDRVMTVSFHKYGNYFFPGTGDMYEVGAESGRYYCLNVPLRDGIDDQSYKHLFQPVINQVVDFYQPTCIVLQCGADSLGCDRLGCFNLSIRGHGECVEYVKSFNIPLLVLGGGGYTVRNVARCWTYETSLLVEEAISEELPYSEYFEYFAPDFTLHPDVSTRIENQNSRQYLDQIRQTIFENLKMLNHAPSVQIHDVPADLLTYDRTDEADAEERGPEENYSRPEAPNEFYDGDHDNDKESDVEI
# Out of some 320,000 compounds screened, about 480 (0.15%) were called active. The shares of active, inactive and inconclusive entries below differ from those in the screen. Cut-off read from the data, not from the text of the source: active = inhibition above about 26% (passing the limit was not always enough); inconclusive = no clear call, values can overlap the other calls.
# Biological target: Histone deacetylase 3 (Homo sapiens) (UniProt O15379)
# Test: HDAC3 deacetylase inhibitors, primary screen, biochemical, fluorescence, cell-free homogeneous (AID 2718)
# Details: recombinant HDAC3, fluorogenic peptide/trypsin coupled, at 8.3 µM, active compounds read high
row,SMILES,inhibition
1,CCC(C)[C@H]1CNC(=S)N1CCc1cc(C(F)(F)F)cc(C(F)(F)F)c1 (some centres undefined),inconclusive: 23.3%
2,O=C(CN1C(=O)COc2ccccc21)NCCN1CCC(Cc2ccccc2)CC1,inactive: 0.048%
3,CCC(C)(c1nnnn1-c1c(C)cccc1C)N(N=O)c1ccccc1Cl (centres undefined),inactive: 1.55%
4,CN1CCc2c(sc(/N=C/c3cc(Cl)ccc3O)c2C#N)C1,inactive: 8.34%
5,CCN(CC)c1ccc(C(=O)N/N=C(\C)c2ccc(OC)c(OC)c2)cc1,inconclusive: 23.9%
6,CC1COC(=O)C(NNc2ccc(Cl)c(Cl)c2)=N1 (centres undefined),inconclusive: 13.6%
7,COc1ccc(-c2cn[nH]c2-c2ccc(OCC(=O)NN)cc2O)cc1,inactive: 16.7%
8,CC1CCC(N2CCN(c3ccc([N+](=O)[O-])cc3)CC2)CC1 (centres undefined),inconclusive: 11.3%
9,O=c1[nH]ccc2c(O)cccc12,inactive: -2.79%
10,COc1ccccc1-n1cnnc1SC(C)C(=O)Nc1cccc([N+](=O)[O-])c1 (centres undefined),inconclusive: 12.8%
11,Cc1ccc(C(=O)NCCSc2ccc(Cl)cc2)cc1S(=O)(=O)Nc1ccccc1,inconclusive: 12.9%
12,COc1cccc(NC(=O)CN(C)S(=O)(=O)c2ccc3c(c2)n(C)c(=O)c(=O)n3C)c1,inactive: 12.1%
13,Cc1ccccc1-c1nnc(SCC(=O)NC2CCCC2)n1C,inconclusive: 26.3%
14,Cc1ccc(S(=O)(=O)Nc2n[nH]nc2C(=O)NC2CCCCC2)cc1,inactive: 4.91%
15,COc1cccc(N=Cc2nc(-c3ccccc3)oc2OC(C)=O)c1,active: 59.2%
16,O=C(CNC(=O)c1ccncc1)N/N=C/c1cc(Br)ccc1OCc1ccccc1,inconclusive: 8.98%
17,CCC12CN(S(=O)(=O)c3ccc(C)cc3)CC(CC)(CN(S(=O)(=O)c3ccc(C)cc3)C1)C2=O,inactive: 8.03%
18,COCCNC(=O)c1cccc(C)c1[N+](=O)[O-],inconclusive: 17.2%
19,COc1ccccc1Nc1cc(C)nc2c(C)ccc([N+](=O)[O-])c12,inactive: -2.54%
20,Cc1ccc(NC(=O)CN2C(=S)NC(C)(C)CC2C)cc1Cl (centres undefined),inactive: -2.29%
21,COc1cccc(NC(=S)N2CCn3cccc3C2c2cccnc2)c1 (centres undefined),inconclusive: 19.5%
22,CCn1nc([N+](=O)[O-])c(C(C#N)c2nc3ccccc3n2C)c(Cl)c1=O (centres undefined),inactive: -0.22%
23,COC(=O)COc1coc(CN2CCN(c3cccc(Cl)c3)CC2)cc1=O,inconclusive: 23.8%

row,SMILES,inhibition
1,COc1ccc([C@H]2CC(=O)C=C(c3cc(Cl)ccc3C)C2)cc1,inactive: 5.38%
2,Cc1cc(/C=N/NC(=O)C(=O)N2CCCC2)c(C)n1-c1cccc(Br)c1,inactive: 1.4%
3,Cn1c(Cn2nnc(-c3ccccc3)n2)nnc1SCc1ccccc1Cl,inconclusive: 28%
4,COc1ccc(C)cc1NC(=O)CN(C)S(=O)(=O)c1cc(C)ccc1OC,inconclusive: 9.72%
5,Cc1cccn2c(=O)c(C=O)c(N3CCN(c4ccc(F)cc4)CC3)nc12,inconclusive: 17.2%
6,O=C(Nc1cccc(NC(=O)c2ccc(Br)o2)n1)c1ccc(Br)o1,inconclusive: 21.2%
7,O=C(CN1CCN(Cc2ccccc2Cl)CC1)N/N=C/C=C/c1ccccc1[N+](=O)[O-],inactive: 9.27%
8,CCCNC(=S)N1CCN(C(c2ccccc2)c2ccccc2)CC1,inconclusive: 12.9%
9,O=C(NCc1ccccc1)C1=C[C@H](C2CC2)C[C@H](OCCCCO)O1,inconclusive: 9.81%
10,COc1ccc(N=Nc2c(C)[nH]c3ccccc23)cc1,inconclusive: 17.9%
11,COc1ccc(NC(=O)C(=O)N2N=C3CCCCC3C2(O)C(F)(F)F)cc1 (centres undefined),inactive: -13.3%
12,Cc1cccc(Nc2nc(NCc3ccco3)c3ccccc3n2)c1,inactive: -7.56%
13,CC(C)c1ccc(Nc2nc(Cl)nc(NCCO)n2)cc1,inactive: 7.11%
14,COc1ccc2nc(NNC(=O)C3COc4ccccc4O3)sc2c1 (centres undefined),inactive: 3.26%
15,COc1ccc(Br)cc1C1CC(=O)N2CN(Cc3ccccc3)CSC2=C1C#N (centres undefined),active: 32.1%
16,NC(=O)c1cc(C(=O)c2ccc(Cl)cc2Cl)c[nH]1,inactive: 5.1%
17,O=C1c2ccc([N+](=O)[O-])cc2C(=O)N1CNc1ccccn1,inconclusive: 21.2%
18,COc1cc(C(=O)NCC(=O)OCC(=O)Nc2nnc(-c3ccccc3)o2)cc(OC)c1OC,inactive: -0.732%
19,CN1CCN(C(=O)C2=C[C@H](c3ccccc3)C[C@H](OCc3ccc(CO)cc3)O2)CC1,inconclusive: 15.6%
20,O=C(Cn1cnc2cc([N+](=O)[O-])ccc2c1=O)NCc1ccc(Cl)cc1,inconclusive: 14.6%
21,Cc1ccc(CN2C(=O)C(C)Nc3ncnc(N4CCOCC4)c32)cc1 (centres undefined),inconclusive: 37.5%
22,CCOc1ccccc1OCCC(=O)Nc1ccc2c(c1)OCO2,inconclusive: 20.4%
23,CCCCCCCCSc1nnc(/N=C/N(C)C)s1,inconclusive: 9.15%

row,SMILES,inhibition
1,Cc1cc(NC(=O)CSc2ccnc(=O)[nH]2)no1,inactive: -2.23%
2,Cc1ccccc1C(=O)N1CCC(C(=O)N(C)CC(=O)Nc2cccc(F)c2)CC1,inactive: -4.07%
3,Cc1ccc(P(=O)(CC(=O)O)c2ccc(C)cc2)cc1,inconclusive: 19%
4,O=C(CNc1ccc2ccccc2c1)NNC1=NCCC1,inconclusive: 4.4%
5,Cc1ccc(-c2nn3c(C)nnc3s2)cc1N,inactive: -5.14%
6,O=C(Cc1cc(=O)[nH][nH]1)N/N=C/C(Cl)=C/c1ccccc1,inconclusive: 21.1%
7,COc1ccc(C(=O)CCc2ccccc2)c(O)c1,inconclusive: 13.1%
8,Cc1cc(SCC(=O)N/N=C/c2ccc(O)cc2O)c(C)cc1Br,inactive: 10.8%
9,COc1cc(C(=O)O/N=C2\C=CC(=O)C(C)=C2)cc(OC)c1OC,active: 62.4%
10,CCCOc1cccc(-c2nc3ccccc3c(=O)o2)c1,inconclusive: 20.7%
11,CC(=O)Nc1ccc(S(=O)(=O)N2CCCN(S(=O)(=O)c3ccc(NC(C)=O)cc3)CC2)cc1,inconclusive: 10.2%
12,Cc1[nH]c(=O)[nH]c(=O)c1S(=O)(=O)Nc1ccc(Oc2ccccc2)cc1,inconclusive: 17.6%
13,N#CCc1nn(-c2ccc(Cl)cc2)c(N)c1C#N,inactive: -2.47%
14,COC(=O)c1ccc2c(=O)n(CCN3CCOCC3)c(SCC(=O)Nc3cccc(OC)c3)nc2c1,inconclusive: 19.7%
15,CC(=O)Nc1ccc(NC(=S)NC(=O)c2ccc(-c3ccccc3)cc2)cc1,inactive: -19.6%
16,Cc1ccc(S(=O)(=O)NNc2ccccc2)cc1,inactive: 7.02%
17,CCC(NC(=S)NC1CCCCC1)c1ccccc1 (centres undefined),inconclusive: 7.99%
18,CC(Oc1ccccc1)c1ccnc2nc(N3CCOCC3)nn12 (centres undefined),inconclusive: 19.3%
19,CCOc1cc(C(=O)NC(C)Cc2cccs2)cc(OCC)c1OCC (centres undefined),inconclusive: 29.7%
20,Cn1/c(=N/NC(=O)c2ccccc2F)sc2ccccc21,inactive: -6.43%
21,CCOC(=O)c1cnc2ccc(OC)cc2c1Nc1ccc2c(c1)OCCO2,inconclusive: 14.8%
22,Cc1ccc(CNC(=O)CSc2nc3n[nH]c(C)c3c(=N)n2-c2cccc(C)c2)cc1,inconclusive: 23.5%
23,Cc1cc(Br)ccc1OCC(=O)NNC(=O)C(=O)Nc1ccccc1,inconclusive: 15.4%

# Some values from the list:
# In inhibition, COc1ccc([C@H]2CC(=O)C=C(c3cc(Cl)ccc3C)C2)cc1 is listed with inactive: 5.38%
# In inhibition, CCC(NC(=S)NC1CCCCC1)c1ccccc1 (centres undefined) is listed with inconclusive: 7.99%
# In inhibition, CCCNC(=S)N1CCN(C(c2ccccc2)c2ccccc2)CC1 is listed with inconclusive: 12.9%
# In inhibition, COc1cc(C(=O)NCC(=O)OCC(=O)Nc2nnc(-c3ccccc3)o2)cc(OC)c1OC is listed with inactive: -0.732%
# In inhibition, CCn1nc([N+](=O)[O-])c(C(C#N)c2nc3ccccc3n2C)c(Cl)c1=O (centres undefined) is listed with inactive: -0.22%

# (next part)

row,SMILES,inhibition
1,COc1ccc(-c2csc(N(CCCN(C)C)C(=O)c3ccc(C(C)(C)C)cc3)n2)cc1,inconclusive: 14.9%
2,COc1cc(OC)cc(C(=O)NCc2n[nH]c(=S)n2-c2ccccc2)c1,inactive: 11.7%
3,Cc1noc(C)c1C(=O)NCC(=O)Nc1ccccc1Br,inactive: -10.2%
4,CC(C)(C)OC(=O)NCCCCCNC(=O)c1[nH]cnc1C(=O)N[C@@H](Cc1ccccc1)C(=O)OC(C)(C)C,active: 27.7%
5,CNc1nc2c3ccccc3n(C(C)=O)c2s1,inactive: 6.25%
6,CCOC(=O)c1c(N)sc(C(=O)Nc2ccccc2F)c1C,inactive: 3.99%
7,COc1cc(Br)c(CN2CCCN(C)CC2)cc1OC,inconclusive: 13.6%
8,CCOC(=O)c1c(-c2ccc(C)o2)csc1NC(=S)NC(=O)c1ccc(F)cc1,inconclusive: 10.4%
9,CC(C)Oc1ccc(CN2CCC(n3nccc3NC(=O)c3cccnc3)CC2)cc1,inconclusive: 17.2%
10,CN(C1CCCCC1)S(=O)(=O)c1ccc2c(c1)c(=O)c(C(=O)NCCN1CCCC1)cn2C,inconclusive: 20.3%
11,CC(C)C[C@H](NC(=O)c1nc[nH]c1C(=O)NCCCCCNC(=O)OC(C)(C)C)C(=O)OCc1ccccc1,inconclusive: 21.8%
12,CN(C)c1ccc(CN(C(=O)c2cccs2)C2CCS(=O)(=O)C2)cc1 (centres undefined),inactive: 0.478%
13,CC(C)C[C@H](NC(=O)c1nc[nH]c1C(=O)NCC(=O)OCc1ccccc1)C(=O)OC(C)(C)C,inconclusive: 19.9%
14,O=C(CCS(=O)(=O)c1ccc2c(c1)NC(=O)CS2)NCCc1ccccc1,inactive: 4.1%
15,Cc1n[nH]c(=O)c2c(NC(=O)CSc3nn(-c4ccc(F)cc4)c(=S)s3)oc(C)c12,active: 44.8%
16,CC(C)c1ccc(NC2CCCN(C(=O)c3ccc(Cn4cnnn4)cc3)C2)cc1 (centres undefined),inconclusive: 17.8%
17,Cc1ccc(C(=O)n2nnc3ccccc32)cc1,active: 96.7%
18,Cc1ccc(OCc2nnc(SCc3ccc(C#N)cc3)n2-c2ccc(C)cc2)cc1,inconclusive: 24.9%
19,O=C(C[n+]1cc[nH]c1)c1ccc(Cl)cc1,inconclusive: 12%
20,Cc1ccccc1C1C(C#N)=C2N=C(N)c3c(sc4c3CCCCC4)N2C2=C1C(=O)CC(C)(C)C2 (centres undefined),inactive: 1.67%
